Reference: patent US20120083518A1, “Cancer Treatment Targeting BRCA1-IRIS” (priority 2010, published 2012)
At least one compound was matched to its structure with a doubt left.

What was measured:
Format in all cases: cell-based, human
[1] = system: AKT and survivin expression in MCAS cells; experiment: Immunoblot of AKT, p-AKT and survivin
Method: (§1) Immunoblotting. […] Bcl-2 (clone 124; Dako Diagnostics AG), Bcl-xL (Transduction Laboratories), actin (Ab-1, CP01, Oncogene) and phospho-Survivin (T34, Novus Biologicals). Mouse antibody against BRCA1-IRIS was generated in our laboratory.
(§2) BRCA1-IRIS overexpression-induced survivin expression is partially PI3′K/AKT-independent. To study this further, MCAS or SK-OV-3 cells were exposed to the PI3′K inhibitor, LY294002 for 24 h or were transfected with BRCA1-IRIS siRNA for 48 h before they were exposed to LY294002 and left for another 24 h. […] Indeed, LY294002 decreased survivin expression in HOSE/vector cells but had little effect in HOSE/IRIS cells (FIG. 3B).
(§3) BRCA1-IRIS downregulation sensitizes ovarian cancer cell lines to cisplatin-induced survivin downregulation and cell death.

[2] = system: BRCA1-IRIS, AKT and survivin expression in SK-OV-3 cells; experiment: Immunoblot of BRCA1-IRIS, AKT, p-AKT and survivin
Method: as §1
BRCA1-IRIS-induced survivin expression is partially AKT-dependent. AKT (siRNA silences AKT1 and AKT2), BRCA1-IRIS, survivin or AKT and BRCA1-IRIS were silenced in SK-OV-3 cells (endogenously overexpressing all proteins, see FIG. 1B) for 72 h. […] Survivin silencing had no effect on BRCA1-IRIS or AKTs the expression (FIG. 2G). Identical results were obtained using MCAS cell line.
as §2, §3

[3] = system: survivin expression in HOSE/vector cells; experiment: Immunoblot of survivin; settings: LY294002 (10 μM) 24 h
[4] = system: AKT and survivin expression in HOSE/IRIS cells; experiment: Immunoblot of AKT and survivin; settings: LY294002 (10 μM) 24 h

In the case of O=c1cc(N2CCOCC2)oc2c(-c3ccccc3)cccc12 [LY294002], the “level of p-AKT” value ([1]; 10 μM LY294002 24 h) is reported as “decreased”, the level of survivin ([1]; 10 μM LY294002 24 h) is reported as “decreased” and the “level of total AKT” value ([1]; 10 μM LY294002 24 h) is reported as “did not change”. For the same molecule, the survivin expression ([1]; BRCA1-IRIS siRNA 48 h then LY294002 24 h) was “completely abolished”, the “level of p-AKT” value ([2]; SK-OV-3, 10 μM LY294002 24 h) was “decreased” and the level of survivin ([2]; SK-OV-3, 10 μM LY294002 24 h) was “decreased”. For the same molecule, the “level of total AKT” value ([2]; SK-OV-3, 10 μM LY294002 24 h) was “did not change”, the survivin expression ([2]; SK-OV-3, BRCA1-IRIS siRNA 48 h then LY294002 24 h) was “completely abolished” and the survivin expression [3] was “decreased”. The survivin expression [4] was “little effect”.
